Data source: PubChem BioAssay AID1259308 (NCATS, 2017)
Purpose: 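Knock-downs that increase output of a recombinant reporter protein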 (primary screen). Cell system: human HEK293 embryonic kidney cells stably expressing firefly luciferase (HEK-CMV-Luc2-Hygro). Reagents: single siRNA against human genes, 0.8 pmol siRNA per well. Time to read-out: 72 h. Detection: 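Luciferase light (ONE-Glo) measured on one replicate plate set and viability (CellTiter-Glo) on the other, scaled to a negative control siRNA, with robust z-scores and luciferase per cell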. Direction: total luciferase, z-score and total luciferase, % of control: higher = more reporter protein produced; luciferase per cell, z-score: higher = more reporter output per viable cell; viable cells, % of control: higher = more viable cells. Hit rule: 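Active when the median/MAD z-score for overall luciferase is greater than 3; a gene was taken forward for validation with new siRNAs if at least two of its three siRNAs passed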. Meaning of the calls: active = raised luciferase; inactive = no rise.
The whole screen tested about 59,000 reagents; this is a random part of them. In the full data, about 1,510 (2.6%) got an active call. 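Calls use total luciferase alone and ignore viability, so some active siRNAs may act by altering cell number.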 Unmarked entries are inactive. The numbers tell different reagents against one gene apart.

target gene | reagent no. | total luciferase, z-score | total luciferase, % of control | luciferase per cell, z-score | viable cells, % of control
DNAJB4 | 1 | 0.573 | 93.3 | 0.577 | 89.5
DNAJB4 | 2 | -0.634 | 69.3 | 0.279 | 71.9
DNAJB4 | 3 | 4.6 (active) | 173 | 2.79 | 93
PRPH | 1 | -0.0106 | 81.7 | -0.0169 | 91.7
PRPH | 2 | -0.615 | 69.6 | -0.447 | 87.5
PRPH | 3 | 0.731 | 96.4 | 1.43 | 74
IGSF10 | 1 | -1.21 | 57.8 | -1.14 | 87.2
IGSF10 | 2 | 0.19 | 85.7 | 0.31 | 88.2
IGSF10 | 3 | -0.69 | 68.2 | -0.587 | 88.9
VAT1L | 1 | -2.03 | 41.6 | -1.7 | 72.7
VAT1L | 2 | -0.748 | 67 | 0.167 | 71.7
VAT1L | 3 | 0.302 | 87.9 | -0.757 | 120
LRRK2 | 1 | 0.66 | 95 | 0.45 | 94.3
LRRK2 | 2 | -1.8 | 46.1 | -1.34 | 73.5
LRRK2 | 3 | 0.466 | 91.2 | 1.37 | 71.1
HEPACAM | 1 | -0.0929 | 80 | -0.586 | 104
HEPACAM | 2 | -0.926 | 63.5 | 0.00716 | 70.8
HEPACAM | 3 | -0.406 | 73.8 | -0.332 | 90
ATRX | 1 | -1.46 | 52.8 | -1.42 | 85.7
ATRX | 2 | 1.32 | 108 | 0.991 | 93.1
ATRX | 3 | -0.321 | 75.5 | -0.703 | 102
HECTD2 | 1 | -0.693 | 68.1 | -0.871 | 95.7
HECTD2 | 2 | -0.265 | 76.6 | -0.724 | 104
HECTD2 | 3 | -1.39 | 54.1 | -1.29 | 84.9
ACTL7A | 1 | 0.0939 | 83.8 | -0.333 | 102
ACTL7A | 2 | 0.262 | 87.1 | -0.25 | 104
ACTL7A | 3 | -0.588 | 70.2 | -1.27 | 110
FER1L6-AS1 | 1 | -0.604 | 69.9 | -0.494 | 88.9
FER1L6-AS1 | 2 | -0.676 | 68.4 | -0.335 | 83.5
FER1L6-AS1 | 3 | 0.754 | 96.9 | 1.75 | 68.2
MFN1 | 1 | -0.291 | 76.1 | -0.616 | 100
MFN1 | 2 | 2.59 | 133 | 2.15 | 84.6
MFN1 | 3 | 0.499 | 91.8 | -0.0106 | 103
DAZL | 1 | -0.652 | 68.9 | -0.766 | 94.2
DAZL | 2 | -1.68 | 48.4 | -0.705 | 65.2
DAZL | 3 | 0.431 | 90.5 | -0.18 | 106
ACOX2 | 1 | 1.28 | 107 | 0.468 | 106
ACOX2 | 2 | -1.76 | 46.9 | -0.959 | 67.5
ACOX2 | 3 | 2.06 | 123 | 0.944 | 107
DDX17 | 1 | -2.12 | 39.7 | -2.77 | 92.1
DDX17 | 2 | -0.469 | 72.6 | 0.472 | 71.6
DDX17 | 3 | 0.352 | 88.9 | -0.422 | 111
PRDM12 | 1 | -2.53 | 31.5 | -3.57 | 90.2
PRDM12 | 2 | 2.67 | 135 | 3.67 | 57.5
PRDM12 | 3 | -0.239 | 77.1 | -0.671 | 103
CENPVL1 | 1 | 0.724 | 96.3 | 0.374 | 97.5
CENPVL1 | 2 | 0.541 | 92.6 | 0.164 | 99.2
CENPVL1 | 3 | 2.33 | 128 | 1.81 | 89
QPCT | 1 | -0.329 | 75.3 | 0.116 | 81.7
QPCT | 2 | -1.52 | 51.7 | -0.967 | 74.6
QPCT | 3 | -0.53 | 71.3 | 0.701 | 66.3
SET | 1 | 1.59 | 114 | 2.58 | 64.4
SET | 2 | -0.194 | 78 | 0.469 | 77.1
SET | 3 | -1.06 | 60.7 | -1.08 | 90.2
GARIN5B | 1 | 1.8 | 118 | 1.89 | 79.9
GARIN5B | 2 | 1.03 | 102 | 1.22 | 83
GARIN5B | 3 | -0.228 | 77.4 | -0.0466 | 87.5

Laid out differently: entries from further up
MFN1 #1
- total luciferase, z-score: -0.291
- total luciferase, % of control: 76.1
- luciferase per cell, z-score: -0.616
- viable cells, % of control: 100

MFN1 #2
- total luciferase, z-score: 2.59
- total luciferase, % of control: 133
- luciferase per cell, z-score: 2.15
- viable cells, % of control: 84.6

MFN1 #3
- total luciferase, z-score: 0.499
- total luciferase, % of control: 91.8
- luciferase per cell, z-score: -0.0106
- viable cells, % of control: 103
